Assay results reported in US20050124581A1, “Alpha-substituted heteroarylalkyl phosphonate derivatives” (priority 2002, published 2005).
Some of these results come from one statement about several compounds together. At least one compound was matched to its structure with a doubt left.

tested on: plasma Lp(a); test: In vivo plasma Lp(a) lowering in male cynomolgus monkeys; settings: 50 mg/kg/day orally by gavage for 2 weeks; measured at Day 7 or 14

Compound | Change in plasma Lp(a), % changes from pre-dose at Day −1
CCOP(=O)(OCC)C(Cc1cc(C)c(O)c(OC)c1)c1ccc(C)nc1 (stereo not drawn) [Compound 25, diethyl β-(4-hydroxy-3-methoxy-5-methylphenyl)-α-(5-(2-methylpyridyl)) ethylphosphonate] | −20% to −29

tested on: apo (a); test: apo (a) secretion in primary cultures of Cynomolgus monkey hepatocytes (ELISA); assay type: cell-based; settings: 20 μM test compound, 6-24 hours incubation

Compound | Change in apo (a) secretion in culture medium, percentage of value measured for the control plates
CCOP(=O)(OCC)/C(=C\c1cc(OC)c(OC)c(OC)c1)Cc1cccnc1 [Compound 6, (Z)-Diethyl β-(3,4,5-trimethoxyphenyl)-α-(3-picolyl)-vinyl Phosphonate] | −15% to −40
CCOP(=O)(OCC)/C(=C/c1cc(OC)c(OC)c(OC)c1)Cc1cccnc1 [Compound 7, (E)-Diethyl β-(3,4,5-trimethoxyphenyl)-α-(3-picolyl)-vinylphosphonate] | −15% to −40
CCOc1cc(/C=C(\c2cccnc2)P(=O)(OCC)OCC)ccc1O [Compound 13, (E)-Diethyl β-(3-ethoxy-4-hydroxyphenyl)-α-(3-pyridyl)-vinyl Phosphonate] | −15% to −40
CCOP(=O)(OCC)/C(=C/c1cc(C)c(O)c(C)c1C)c1cccnc1 [Compound 15, (E)-diethyl β-(4-hydroxy-2,3,5-trimethylphenyl)-α-(3-pyridyl)vinylphosphonate] | −15% to −40
CCOP(=O)(OCC)/C(=C/c1cc(OC)c(O)c(OC)c1)c1cccnc1 [Compound 17, (E)-diethyl β-(3,5-dimethoxy-4-hydroxyphenyl)-α-(3-pyridyl)vinylphosphonate] | −15% to −40
CCOP(=O)(OCC)/C(=C/c1cc(OC)c(O)c(OC)c1)c1ccc(C)nc1 [Compound 19, (E)-diethyl β-(3,5-dimethoxy-4-hydroxyphenyl)-α-(5-(2-methylpyridyl))vinylphosphonate] | −15% to −40
CCOP(=O)(OCC)/C(=C/c1cc(C)c(O)c(OC)c1)c1cccnc1 [Compound 22, (E)-Diethyl β-(4-hydroxy-3-methoxy-5-methylphenyl)-α-(3-pyridyl)-vinyl Phosphonate] | −15% to −40
CCOP(=O)(OCC)/C(=C/c1cc(C)c(O)c(OC)c1)c1ccc(C)nc1 [Compound 24, (E)-Diethyl β-(4-hydroxy-3-methoxy-5-methylphenyl)-α-(5-(2-methylpyridyl))-vinylphosphonate] | −15% to −40
CCOP(=O)(OCC)C(Cc1cc(C)c(O)c(OC)c1)c1ccc(C)nc1 (stereo not drawn) [Compound 25, diethyl β-(4-hydroxy-3-methoxy-5-methylphenyl)-α-(5-(2-methylpyridyl)) ethylphosphonate] | −15% to −40
